Data as given in patent publication US8048898B2, “Inhibitor of binding of S1P1” (Taisho Pharmaceutical Co., Ltd, priority 2007, dated 2011).
Some results were stated once for a whole list of compounds, not compound by compound.

By UniProt entry, the sequences of proteins in these tests, tags left out.
UniProt P21453, whole entry: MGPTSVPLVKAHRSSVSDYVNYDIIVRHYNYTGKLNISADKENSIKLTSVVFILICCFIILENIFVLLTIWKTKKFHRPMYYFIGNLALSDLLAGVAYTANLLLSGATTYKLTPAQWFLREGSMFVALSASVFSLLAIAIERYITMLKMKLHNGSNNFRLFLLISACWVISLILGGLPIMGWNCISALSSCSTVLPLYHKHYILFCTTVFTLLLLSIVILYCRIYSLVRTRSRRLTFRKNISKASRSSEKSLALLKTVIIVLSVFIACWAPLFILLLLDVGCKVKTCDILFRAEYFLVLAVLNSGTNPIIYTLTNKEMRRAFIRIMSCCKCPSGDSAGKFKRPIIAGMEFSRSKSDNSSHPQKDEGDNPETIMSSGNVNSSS

Target: T1, human Edg-1(S1P1) (Homo sapiens, UniProt P21453)
T1 construct: expressed in transfected cells; host or cells: HEK-293
Assay: S1P1 Binding Test ([33P]-S1P, membrane fraction of HEK-293 cell line carrying the human Edg-1(S1P1) gene)
Settings: compound at 10 μM; [33P]-S1P 0.1 nM; 30° C., 1 hour
Protocol: The membrane fraction of a HEK-293 cell line carrying the human Edg-1(S1P1) gene was used to study the compounds of the present invention for their inhibitory effect on Edg-1(S1P1) binding, as described in Science. […] To obtain the membrane fraction, treatment with solubilizing buffer (1 mM Tris/HCl, pH 7.2) for 10 minutes on ice was performed, followed by centrifugation at 1000×g for 5 minutes to remove an insoluble fraction and then at 40000×g for 30 minutes at 4° C. The resulting membrane fraction was dissolved in binding buffer (20 mM Tris-HCl, pH 7.4, 100 mM NaCl, 15 mM NaF, 2 mM deoxypyridoxine, 4 mg/mL fatty acid-free BSA), followed by addition of binding buffer containing [^33P]-S1P (ARC, final concentration: 0.1 nM) and DMSO solution of a test compound (final concentration of the compound: 10^−5 M, final concentration of DMSO: 0.1%). After stirring, the reaction solution was incubated at 30° C. for 1 hour. […] After addition of 25 μL Microscint 0 (Perkin Elmer), radioactivity was measured with a Top Count NXT (Packard) to calculate amount (A), i.e., the amount of [^33P]-S1P binding to the membrane fraction in the presence of the compound. […]
The inhibition rate of Edg-1(S1P1) binding was calculated for each compound by the following equation. […]

Substance: 5-Chloro-naphthalene-2-sulfonic acid (1-{3-ethyl-4-[3-(4-methyl-piperazin-1-yl)-phenoxy]-pyridin-2-yl}-ethyl)-amide [Compound 4]
- inhibition rate of Edg-1(S1P1) binding: ≥ 3%
